Assay results taken from patent US20120196828A1, “SENSITIZATION OF CANCER CELLS TO TREATMENT” (priority 2011, published 2012).

System: BxPC-3 Human Pancreas Tumor Xenograft
Assay: BxPC-3 human pancreas tumor xenograft model: tumor weight and tumor growth inhibition
Assay type: in vivo, mouse
Details: for Day tumor necrosis was first observed: in vivo; for Tumors demonstrating some level of necrosis: of ten tumors, attributed to normal progression of the xenograft model
Procedure: Compounds tested in the experiment were as follows. […] A concentration of 4.8 mg/ml was formulated to deliver a 24 mg/kg dose at a 5 ml/kg dose volume when administered subcutaneously. […] Nab-paclitaxel was manufactured by Abraxis BioScience LLC (Bridgewater, N.J.) and diluted in a 0.9% NaCl solution to a concentration of 1.5 mg/ml to deliver 15 mg/kg, in a 10 ml/kg dose volume. All standard agent preparations were made fresh prior to their administration.
BxPC-3 cells were obtained and prepared as follows. The BxPC-3 pancreas tumor cell line was received from American Type Culture Collection (ATCC, Manassas, Va.). Cultures were maintained in RPMI 1640 medium (Hyclone, Logan, Utah) supplemented with 5% fetal bovine serum. The cells were housed in a 5% CO2 atmosphere. The cultures were expanded in tissue culture flasks at a 1:3 split ratio until a sufficient amount of cells were harvested.
All experiments were conducted on female athymic nude mice (Hsd:Athymic Nude-Foxn1nu) supplied by Harlan (Indianapolis, Ind.). Mice were received at four weeks of age, 12-15 grams in weight, and were acclimated for seven days prior to handling. The mice were housed in microisolator cages (Lab Products, Seaford, Del.) and maintained under specific pathogen-free conditions. All procedures were carried out under appropriate institutional guidelines for animal care.
BxPC-3 Human Pancreas Tumor Xenograft Model: Female athymic nude mice per treatment condition were inoculated subcutaneously in the right flank with 0.1 ml of a 50% RPMI 1640/50% Matrigel™ (BD Biosciences, Bedford, Mass.) mixture containing a suspension of BxPC-3 tumor cells (approximately 5×10^6 cells/mouse).
Seven days following inoculation, tumors were measured using calipers and tumor weight was calculated using the animal study management software, Study Director V.1.7.54 k (Study Log). See Britten C D, et al. Enhanced antitumor activity of 6-hydroxymethylacylfulvene in combination with irinotecan and 5-fluorouracil in the HT29 human colon tumor xenograft model. Cancer Res 59:1049-1053, 1999. […] Body weights were recorded when the mice were randomized and were taken twice weekly thereafter in conjunction with tumor measurements, on each of Days 1, 4, 8, 11, 15, 18, 22, 26, 30, 33, and 36.
The study was terminated when the vehicle control reached an endpoint of 1500 mg, on Day 36.
Mean tumor growth inhibition (TGI) was calculated utilizing Formula A below (deaths were not included in the TGI calculations).
All statistical analyses in the xenograft study were performed with GraphPad Prism® v4 software.

Row | Compound | Day tumor necrosis was first observed | Tumors demonstrating some level of necrosis
1 | Nc1ccn([C@@H]2O[C@H](CO)[C@@H](O)C2(F)F)c(=O)n1 [Gemcitabine] | 26 days | Four of the ten
2 | O=C1[O][Pt]2([NH][C@@H]3CCCC[C@H]3[NH]2)[O]C1=O [Oxaliplatin] | 26 days | Three of ten
3 | 2-O, 3-O desulfated heparin [ODSH] | 30 days | Three of ten
